Source: the supplement of paper PMC10849652
The list shows a part of the results.

By UniProt entry, the sequences of proteins in these tests, tags left out. Where a name states a change or a piece, a line headed by the entry shows the natural chain unless it says otherwise.
UniProt Q8N5M1: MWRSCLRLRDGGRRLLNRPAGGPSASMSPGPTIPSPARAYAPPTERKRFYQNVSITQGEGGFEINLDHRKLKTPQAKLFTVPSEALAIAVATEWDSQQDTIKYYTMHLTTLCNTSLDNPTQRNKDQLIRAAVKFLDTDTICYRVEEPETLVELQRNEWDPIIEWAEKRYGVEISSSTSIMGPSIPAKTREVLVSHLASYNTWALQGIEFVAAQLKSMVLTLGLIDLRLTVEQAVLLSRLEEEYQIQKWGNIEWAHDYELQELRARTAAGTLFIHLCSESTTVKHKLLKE
UniProt Q96BY7: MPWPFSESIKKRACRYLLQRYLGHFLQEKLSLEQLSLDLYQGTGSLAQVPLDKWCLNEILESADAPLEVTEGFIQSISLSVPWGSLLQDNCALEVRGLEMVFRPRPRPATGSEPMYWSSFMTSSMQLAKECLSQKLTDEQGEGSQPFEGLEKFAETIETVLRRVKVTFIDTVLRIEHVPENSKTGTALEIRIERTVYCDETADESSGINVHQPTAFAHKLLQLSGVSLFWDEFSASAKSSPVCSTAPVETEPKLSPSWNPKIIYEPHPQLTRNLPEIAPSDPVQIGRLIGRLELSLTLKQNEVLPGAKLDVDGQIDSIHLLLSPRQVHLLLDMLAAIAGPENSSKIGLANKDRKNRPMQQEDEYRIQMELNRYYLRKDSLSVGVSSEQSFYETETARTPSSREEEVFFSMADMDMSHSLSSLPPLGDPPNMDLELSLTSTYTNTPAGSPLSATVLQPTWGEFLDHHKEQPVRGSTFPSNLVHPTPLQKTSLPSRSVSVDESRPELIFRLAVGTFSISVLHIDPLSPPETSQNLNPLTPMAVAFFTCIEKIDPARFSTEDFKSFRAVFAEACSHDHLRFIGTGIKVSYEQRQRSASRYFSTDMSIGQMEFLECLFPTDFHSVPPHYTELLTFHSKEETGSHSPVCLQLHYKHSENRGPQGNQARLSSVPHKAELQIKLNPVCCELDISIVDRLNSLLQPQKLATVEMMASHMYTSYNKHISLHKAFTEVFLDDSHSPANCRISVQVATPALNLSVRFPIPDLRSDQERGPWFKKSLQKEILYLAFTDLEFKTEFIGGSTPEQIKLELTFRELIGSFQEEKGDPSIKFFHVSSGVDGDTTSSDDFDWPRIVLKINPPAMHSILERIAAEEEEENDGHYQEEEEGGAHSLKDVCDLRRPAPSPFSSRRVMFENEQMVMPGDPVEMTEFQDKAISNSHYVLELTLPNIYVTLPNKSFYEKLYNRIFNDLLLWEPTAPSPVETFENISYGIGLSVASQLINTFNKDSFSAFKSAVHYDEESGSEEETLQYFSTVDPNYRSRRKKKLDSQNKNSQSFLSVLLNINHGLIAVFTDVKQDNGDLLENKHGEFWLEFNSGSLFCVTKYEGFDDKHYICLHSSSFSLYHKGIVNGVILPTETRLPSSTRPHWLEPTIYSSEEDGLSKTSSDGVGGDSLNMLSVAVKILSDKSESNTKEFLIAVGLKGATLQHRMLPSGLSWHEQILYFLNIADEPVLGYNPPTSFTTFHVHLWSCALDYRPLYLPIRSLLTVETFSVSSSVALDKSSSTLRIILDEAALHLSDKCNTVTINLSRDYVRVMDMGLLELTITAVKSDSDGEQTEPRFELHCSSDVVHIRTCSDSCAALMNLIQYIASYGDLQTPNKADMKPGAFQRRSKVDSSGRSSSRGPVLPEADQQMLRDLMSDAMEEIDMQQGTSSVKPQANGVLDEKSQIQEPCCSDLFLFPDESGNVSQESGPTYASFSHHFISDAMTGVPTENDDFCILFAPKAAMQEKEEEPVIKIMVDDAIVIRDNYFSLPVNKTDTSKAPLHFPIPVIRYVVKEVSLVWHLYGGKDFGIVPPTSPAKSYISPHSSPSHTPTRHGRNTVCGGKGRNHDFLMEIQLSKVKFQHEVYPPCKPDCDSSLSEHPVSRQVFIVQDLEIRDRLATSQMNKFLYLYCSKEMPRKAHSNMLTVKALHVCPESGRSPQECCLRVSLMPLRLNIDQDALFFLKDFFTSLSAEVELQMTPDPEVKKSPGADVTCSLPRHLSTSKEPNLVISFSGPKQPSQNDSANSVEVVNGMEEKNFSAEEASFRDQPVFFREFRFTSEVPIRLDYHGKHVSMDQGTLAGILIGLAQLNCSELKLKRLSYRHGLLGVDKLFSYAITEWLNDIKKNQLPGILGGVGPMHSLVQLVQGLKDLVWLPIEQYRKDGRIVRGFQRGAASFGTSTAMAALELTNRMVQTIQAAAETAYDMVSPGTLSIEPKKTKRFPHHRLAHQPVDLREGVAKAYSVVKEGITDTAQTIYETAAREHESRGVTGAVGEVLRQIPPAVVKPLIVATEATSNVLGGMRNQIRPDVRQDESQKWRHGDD
UniProt P27449, whole entry, looked up: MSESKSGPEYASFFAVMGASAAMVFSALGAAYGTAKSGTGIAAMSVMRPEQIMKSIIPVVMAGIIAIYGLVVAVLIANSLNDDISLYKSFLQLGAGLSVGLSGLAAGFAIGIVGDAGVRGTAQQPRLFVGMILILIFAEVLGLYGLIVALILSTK
UniProt O75787, whole entry, looked up: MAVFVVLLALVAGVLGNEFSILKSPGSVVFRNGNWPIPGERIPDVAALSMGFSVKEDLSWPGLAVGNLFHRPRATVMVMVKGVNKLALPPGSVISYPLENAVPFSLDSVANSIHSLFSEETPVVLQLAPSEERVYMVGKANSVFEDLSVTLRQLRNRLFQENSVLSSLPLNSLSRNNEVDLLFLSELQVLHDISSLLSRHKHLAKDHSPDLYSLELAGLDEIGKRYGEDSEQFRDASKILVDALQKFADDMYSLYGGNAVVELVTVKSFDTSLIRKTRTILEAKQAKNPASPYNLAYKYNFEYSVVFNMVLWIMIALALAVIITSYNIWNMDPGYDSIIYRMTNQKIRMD
UniProt Q8WXE1: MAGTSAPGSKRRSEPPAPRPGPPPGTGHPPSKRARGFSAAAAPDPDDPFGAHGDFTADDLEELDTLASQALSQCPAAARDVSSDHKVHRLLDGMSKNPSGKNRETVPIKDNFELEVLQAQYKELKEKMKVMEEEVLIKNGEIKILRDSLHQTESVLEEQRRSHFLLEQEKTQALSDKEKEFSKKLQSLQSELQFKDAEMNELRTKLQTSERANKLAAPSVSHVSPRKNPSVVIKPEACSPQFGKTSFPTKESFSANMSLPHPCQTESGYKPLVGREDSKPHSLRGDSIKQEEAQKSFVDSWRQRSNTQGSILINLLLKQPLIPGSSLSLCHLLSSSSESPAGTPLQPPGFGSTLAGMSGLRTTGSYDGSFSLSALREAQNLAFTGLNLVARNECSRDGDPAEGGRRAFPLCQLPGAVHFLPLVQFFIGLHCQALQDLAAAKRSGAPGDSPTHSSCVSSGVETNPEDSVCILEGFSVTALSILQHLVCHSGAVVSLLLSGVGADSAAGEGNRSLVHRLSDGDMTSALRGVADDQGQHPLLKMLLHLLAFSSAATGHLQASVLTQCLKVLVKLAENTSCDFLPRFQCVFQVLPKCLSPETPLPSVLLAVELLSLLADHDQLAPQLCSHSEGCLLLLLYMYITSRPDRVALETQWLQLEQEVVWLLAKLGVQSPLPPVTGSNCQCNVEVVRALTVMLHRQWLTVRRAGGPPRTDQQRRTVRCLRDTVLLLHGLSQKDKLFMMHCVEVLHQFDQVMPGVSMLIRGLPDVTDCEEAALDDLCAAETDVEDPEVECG
UniProt O75882: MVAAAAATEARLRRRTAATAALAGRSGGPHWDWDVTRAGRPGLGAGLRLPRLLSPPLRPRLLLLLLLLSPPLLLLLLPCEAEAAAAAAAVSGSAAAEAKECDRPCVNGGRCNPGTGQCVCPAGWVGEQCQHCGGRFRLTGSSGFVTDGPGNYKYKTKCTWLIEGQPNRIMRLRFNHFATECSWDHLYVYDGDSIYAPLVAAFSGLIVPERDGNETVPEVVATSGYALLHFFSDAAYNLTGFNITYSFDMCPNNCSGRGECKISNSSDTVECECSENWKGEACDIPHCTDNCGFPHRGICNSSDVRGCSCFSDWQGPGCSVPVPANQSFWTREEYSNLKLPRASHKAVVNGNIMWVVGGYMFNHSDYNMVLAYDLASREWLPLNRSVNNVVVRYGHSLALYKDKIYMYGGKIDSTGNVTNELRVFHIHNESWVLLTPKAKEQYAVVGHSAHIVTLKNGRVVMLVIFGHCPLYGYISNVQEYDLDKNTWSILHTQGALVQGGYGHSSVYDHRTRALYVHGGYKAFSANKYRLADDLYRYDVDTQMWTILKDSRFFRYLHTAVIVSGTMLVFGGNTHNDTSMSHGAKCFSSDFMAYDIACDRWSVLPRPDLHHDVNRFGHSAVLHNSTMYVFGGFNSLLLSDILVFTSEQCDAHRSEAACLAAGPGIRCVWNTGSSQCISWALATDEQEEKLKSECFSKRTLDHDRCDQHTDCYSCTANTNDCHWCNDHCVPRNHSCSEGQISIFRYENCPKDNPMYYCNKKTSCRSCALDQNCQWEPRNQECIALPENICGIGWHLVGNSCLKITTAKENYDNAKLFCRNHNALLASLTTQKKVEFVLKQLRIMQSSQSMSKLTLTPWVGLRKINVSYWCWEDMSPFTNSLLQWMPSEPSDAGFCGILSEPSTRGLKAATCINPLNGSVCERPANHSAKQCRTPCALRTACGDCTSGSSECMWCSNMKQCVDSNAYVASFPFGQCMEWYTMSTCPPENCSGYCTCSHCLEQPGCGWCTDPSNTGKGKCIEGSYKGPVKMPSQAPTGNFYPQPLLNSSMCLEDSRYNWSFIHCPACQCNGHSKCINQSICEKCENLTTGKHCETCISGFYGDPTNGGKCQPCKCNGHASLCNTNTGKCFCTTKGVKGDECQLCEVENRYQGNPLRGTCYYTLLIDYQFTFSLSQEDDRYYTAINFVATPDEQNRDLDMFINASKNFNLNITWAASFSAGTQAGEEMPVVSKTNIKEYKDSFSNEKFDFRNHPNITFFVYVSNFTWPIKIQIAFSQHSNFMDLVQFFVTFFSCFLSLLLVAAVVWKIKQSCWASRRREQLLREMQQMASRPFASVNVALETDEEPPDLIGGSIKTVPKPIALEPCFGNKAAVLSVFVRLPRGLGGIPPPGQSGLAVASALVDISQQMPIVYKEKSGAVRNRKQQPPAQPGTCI
UniProt P48047: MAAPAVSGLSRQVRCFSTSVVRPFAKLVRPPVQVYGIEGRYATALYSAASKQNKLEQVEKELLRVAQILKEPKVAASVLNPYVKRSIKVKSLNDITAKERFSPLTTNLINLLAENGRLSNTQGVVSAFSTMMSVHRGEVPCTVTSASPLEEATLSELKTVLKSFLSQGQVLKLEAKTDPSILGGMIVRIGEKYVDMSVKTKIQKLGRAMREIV
UniProt Q9Y2G3: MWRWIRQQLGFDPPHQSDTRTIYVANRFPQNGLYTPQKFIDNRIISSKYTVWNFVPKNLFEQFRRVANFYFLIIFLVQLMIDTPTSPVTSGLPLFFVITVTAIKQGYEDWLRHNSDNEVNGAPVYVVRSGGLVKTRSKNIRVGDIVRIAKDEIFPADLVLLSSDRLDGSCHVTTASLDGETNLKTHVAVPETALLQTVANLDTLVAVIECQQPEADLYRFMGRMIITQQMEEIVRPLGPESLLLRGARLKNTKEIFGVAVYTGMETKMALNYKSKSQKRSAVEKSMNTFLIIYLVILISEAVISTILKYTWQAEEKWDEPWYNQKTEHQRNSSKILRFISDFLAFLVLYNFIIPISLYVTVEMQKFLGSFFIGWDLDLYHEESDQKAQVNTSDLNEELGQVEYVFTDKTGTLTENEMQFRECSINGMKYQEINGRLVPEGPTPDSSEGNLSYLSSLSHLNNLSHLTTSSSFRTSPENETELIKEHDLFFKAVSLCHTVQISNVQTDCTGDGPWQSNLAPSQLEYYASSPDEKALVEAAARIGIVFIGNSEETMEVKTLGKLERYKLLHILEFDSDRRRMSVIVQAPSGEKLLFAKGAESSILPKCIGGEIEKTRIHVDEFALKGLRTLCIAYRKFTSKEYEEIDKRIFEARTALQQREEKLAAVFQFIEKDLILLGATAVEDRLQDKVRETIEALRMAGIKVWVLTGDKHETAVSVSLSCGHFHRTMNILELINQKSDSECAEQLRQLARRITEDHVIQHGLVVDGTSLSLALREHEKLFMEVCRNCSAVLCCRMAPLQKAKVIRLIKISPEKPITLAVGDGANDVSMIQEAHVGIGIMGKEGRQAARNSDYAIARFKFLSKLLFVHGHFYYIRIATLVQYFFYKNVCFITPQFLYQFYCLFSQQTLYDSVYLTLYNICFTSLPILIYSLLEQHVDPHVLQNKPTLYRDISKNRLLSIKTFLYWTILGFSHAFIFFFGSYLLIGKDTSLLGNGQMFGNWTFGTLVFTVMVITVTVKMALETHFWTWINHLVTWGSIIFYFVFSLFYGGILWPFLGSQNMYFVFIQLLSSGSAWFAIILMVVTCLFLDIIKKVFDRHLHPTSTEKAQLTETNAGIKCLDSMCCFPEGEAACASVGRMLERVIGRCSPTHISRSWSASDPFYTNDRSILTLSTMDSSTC
UniProt P18859: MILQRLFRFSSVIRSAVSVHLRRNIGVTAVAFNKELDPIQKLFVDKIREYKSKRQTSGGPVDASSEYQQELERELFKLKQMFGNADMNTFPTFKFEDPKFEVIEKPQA

What was measured:
Assay in all cases: log2 fold change, soluble protein after heating vs DMSO (PISA); higher = thermal stabilisation; K562 lysate, 10 uM; active = over 0.2 and 3.5 SD of the protein, either way, in both replicates (recomputed)
[1] = compound: C1=CC=C(C=C1)[C@H](COC2=CC3=C(C=C2)NC(=O)N3)NC(=O)C4=CC=CN(C4=O)CC5=CC(=C(C=C5)F)F
Summary of the method: (§1)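 K562 pellets were dounce-homogenised in PBS pH 7.4 with 1 mM MgCl2, and the crude extract at 1 mg/mL protein was treated with 10 μM compound for 30 min. Aliquots were heated for 3 min across 48°C-58°C, pooled, and brought to 0.5% NP-40 at 4°C; soluble protein was the supernatant after 21,000xg for 90 min. Soluble protein was quantified by TMTpro 16plex LC-MS/MS with channel sums equalised, and reported as log2 fold change in thermal stability against DMSO controls, with values from duplicates.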

[2] = compound: CC1=C(SC2=C1C(=N[C@H](C3=NN=C(N32)C)CC(=O)N)C4=CC=C(C=C4)Cl)C
Summary of the method: as §1

[3] = compound: CC1=C2C(=CC=C1)N=C(N(C2=O)C3=CC=CC=C3C)CN4C=NC5=C(N=CN=C54)N
Summary of the method: as §1

[4] = compound: Cc1sc2c(c1C)C(c1ccc(Cl)cc1)=N[C@@H](CC(=O)OC(C)(C)C)c1nnc(C)n1-2
Summary of the method: as §1

[5] = compound: c1ccc([C@@H]2C[C@H]2NC2CCNCC2)cc1
Summary of the method: as §1

Measured: log2 fold change

ATP6V1H (UniProt Q9UI12)
inactive: [1] 0.015 | [2] 0.004 | [3] 0.003 | [4] 0.027 | [5] 0.007

ATP5F1B (UniProt F8W079)
inactive: [1] 0.005 | [2] -0.255

ATP6V1E2 (UniProt Q96A05)
inactive: [1] -0.003 | [2] -0.009 | [3] 0.043 | [4] -0.103 | [5] -0.048

ATG7 (UniProt O95352)
inactive: [1] 0.014 | [2] 0.003 | [3] 0.028 | [4] -0.014 | [5] 0.044

ATIC (UniProt P31939)
inactive: [1] 0.001 | [2] 0.022 | [3] 0 | [4] 0.052 | [5] 0.014

ATP6V1D (UniProt Q9Y5K8)
inactive: [1] 0.044 | [2] 0.016 | [3] -0.005 | [4] 0.02 | [5] 0.021

ATP6AP1 (UniProt Q15904)
inactive: [1] 0 | [2] -0.035 | [3] 0.039 | [4] -0.06 | [5] -0.024

ATPAF2 (UniProt Q8N5M1)
inactive: [1] 0.118 | [2] 0.018 | [3] 0.026 | [4] -0.073 | [5] -0.044

ATG2B (UniProt Q96BY7)
inactive: [1] -0.064 | [2] -0.009 | [3] 0.053 | [4] -0.009 | [5] 0.019

ATP23 (UniProt Q9Y6H3)
inactive: [1] 0.013 | [2] 0.135 | [3] 0.032 | [4] -0.009 | [5] 0.126

ATG10 (UniProt Q9H0Y0)
inactive: [1] 0.008 | [2] 0 | [3] -0.057 | [4] 0.047 | [5] 0.076

ATP6V0C (UniProt P27449)
inactive: [1] 0.039 | [2] -0.117 | [3] 0.022 | [4] -0.069 | [5] -0.054

ATF2 (UniProt P15336)
inactive: [1] 0.088 | [2] -0.044 | [3] -0.034 | [4] 0.01 | [5] 0.055

ATXN2 (UniProt F8WB05)
inactive: [1] -0.17 | [2] 0.212 | [3] 0.146 | [4] 0.004 | [5] 0.022

ATP6AP2 (UniProt O75787)
inactive: [1] -0.033 | [2] 0.044 | [3] 0.075 | [4] -0.02 | [5] 0.091

B3GLCT (UniProt Q6Y288)
inactive: [1] 0.029 | [2] -0.004 | [3] 0.036 | [4] -0.015 | [5] -0.008

ATP2B4 (UniProt P23634)
inactive: [1] -0.021 | [2] 0.036 | [3] 0.059 | [4] 0.029 | [5] -0.081

Quoted from the results shown (2 entries):
ATP6AP2 (UniProt O75787)
inactive: [1] -0.033 | [2] 0.044 | [3] 0.075 | [4] -0.02 | [5] 0.091

B3GLCT (UniProt Q6Y288)
inactive: [1] 0.029 | [2] -0.004 | [3] 0.036 | [4] -0.015 | [5] -0.008

(cont.)

ATP2C1 isoform 7 (UniProt P98194)
inactive: [1] -0.028 | [2] 0.033 | [3] 0.055 | [4] -0.026 | [5] -0.023

ATXN2L isoform 3 (UniProt Q8WWM7)
inactive: [1] 0.032 | [2] 0.007 | [3] -0.019 | [4] -0.053 | [5] 0.006

ATP13A1 (UniProt Q9HD20)
inactive: [1] 0.006 | [2] -0.001 | [3] 0.079 | [4] 0.064 | [5] 0.03

ATE1 isoform 2 (UniProt O95260)
inactive: [1] -0.015 | [2] -0.008 | [3] -0.004 | [4] 0.009 | [5] -0.087

ATP6V0A2 (UniProt Q9Y487)
inactive: [1] -0.011 | [2] -0.017 | [3] 0.026 | [4] -0.015 | [5] -0.114

ATP5F1C (UniProt P36542)
inactive: [1] 0.041 | [2] -0.018 | [3] 0.018 | [4] -0.007 | [5] 0.03

ATXN7L3B (UniProt Q96GX2)
inactive: [1] 0.069 | [2] -0.056 | [3] 0.03 | [4] 0.001 | [5] -0.052

ATRIP (UniProt Q8WXE1)
inactive: [1] -0.042 | [2] -0.02 | [3] -0.056 | [4] -0.032 | [5] 0.093

AZI2 (UniProt Q9H6S1)
inactive: [1] 0.008 | [2] -0.196 | [3] 0 | [4] 0.035 | [5] 0.019

AXIN1 (UniProt O15169)
inactive: [1] -0.108 | [2] 0.074 | [3] 0.005 | [4] -0.046 | [5] -0.05

ASNA1 (UniProt O43681)
inactive: [1] 0.004 | [2] 0.003 | [3] -0.026 | [4] -0.001 | [5] 0.061

ATF7 isoform 6 (UniProt P17544)
inactive: [1] -0.084 | [2] 0.055 | [3] -0.148 | [4] 0.037 | [5] 0.086

ATG2A isoform 3 (UniProt Q2TAZ0)
inactive: [1] -0.064 | [2] 0.026 | [3] 0.104 | [4] 0.035 | [5] 0.031

ATP5F1D (UniProt P30049)
inactive: [1] -0.018 | [2] -0.05 | [3] -0.039 | [4] -0.008 | [5] -0.048

ATP13A3 (UniProt Q9H7F0)
inactive: [1] 0.003 | [2] 0.054 | [3] 0.043 | [4] -0.03 | [5] -0.03

AVEN (UniProt Q9NQS1)
inactive: [1] 0.205 | [2] 0.025 | [3] 0.003 | [4] 0.013 | [5] -0.058

ASMTL (UniProt O95671)
inactive: [1] -0.041 | [2] -0.008 | [3] 0.023 | [4] 0.073 | [5] 0

ATP6V1B2 (UniProt P21281)
inactive: [1] 0.054 | [2] 0 | [3] -0.033 | [4] -0.065 | [5] -0.022

ATRN (UniProt O75882)
inactive: [1] -0.059 | [2] -0.061 | [3] -0.005 | [4] -0.03 | [5] 0.034

ATP5MG (UniProt O75964)
inactive: [1] -0.046 | [2] -0.024 | [3] 0.018 | [4] -0.038 | [5] -0.028

ASH2L (UniProt Q9UBL3)
inactive: [1] 0.009 | [2] 0.002 | [3] 0.016 | [4] 0.039 | [5] 0.04

ATP5PO (UniProt P48047)
inactive: [1] 0.011 | [2] -0.003 | [3] -0.033 | [4] 0.009 | [5] 0.06

AURKAIP1 (UniProt Q9NWT8)
inactive: [1] 0.05 | [2] 0.032 | [3] -0.014 | [4] 0.024 | [5] 0.034

ATP6V0D1 (UniProt P61421)
inactive: [1] -0.052 | [2] -0.06 | [3] -0.007 | [4] 0.012 | [5] -0.012

ATOX1 (UniProt O00244)
inactive: [1] -0.067 | [2] 0.008 | [3] -0.052 | [4] -0.016 | [5] 0

ATP6V1C1 (UniProt P21283)
inactive: [1] -0.015 | [2] -0.035 | [3] -0.01 | [4] 0.032 | [5] 0.012

ATP11B (UniProt Q9Y2G3)
inactive: [1] 0.024 | [2] -0.032 | [3] 0.018 | [4] -0.015 | [5] -0.107

ATP6V0A1 isoform 3 (UniProt Q93050)
inactive: [1] 0.05 | [2] -0.013 | [3] 0.05 | [4] -0.005 | [5] -0.074

ATG4C (UniProt Q96DT6)
inactive: [1] 0.044 | [2] 0.05 | [3] -0.043 | [4] -0.015 | [5] -0.058

ASCC1 isoform 2 (UniProt Q8N9N2)
inactive: [1] 0.033 | [2] -0.009 | [3] 0.039 | [4] -0.04 | [5] 0

ATP6V1A (UniProt P38606)
inactive: [1] 0.002 | [2] 0.009 | [3] -0.002 | [4] -0.01 | [5] 0.024

ATG4A (UniProt Q8WYN0)
inactive: [1] 0.008 | [2] 0.022 | [3] 0.068 | [4] -0.01 | [5] -0.103

ASF1A (UniProt Q9Y294)
inactive: [1] 0.034 | [2] -0.01 | [3] 0.025 | [4] -0.024 | [5] -0.058

ATG3 (UniProt Q9NT62)
inactive: [1] 0.075 | [2] -0.025 | [3] 0.023 | [4] 0.008 | [5] -0.005

AZGP1 (UniProt P25311)
inactive: [1] -0.213 | [2] 0.062 | [3] -0.396 | [4] 0.172 | [5] -0.148

ATP5PF isoform 2 (UniProt P18859)
inactive: [1] 0.085 | [2] -0.086 | [3] -0.05 | [4] 0.075 | [5] 0.228
